From paper PMC7335067
No constants are given. Whether binding was seen depends on the method and setting. In cells and extracts the contact can be indirect. Some binding calls cover weakened binding; strength is not graded here. Where a sequence is shown, tags or fusion partners need not be part of it.

By UniProt entry, the sequences of proteins in these tests, tags left out.
UniProt Q13596: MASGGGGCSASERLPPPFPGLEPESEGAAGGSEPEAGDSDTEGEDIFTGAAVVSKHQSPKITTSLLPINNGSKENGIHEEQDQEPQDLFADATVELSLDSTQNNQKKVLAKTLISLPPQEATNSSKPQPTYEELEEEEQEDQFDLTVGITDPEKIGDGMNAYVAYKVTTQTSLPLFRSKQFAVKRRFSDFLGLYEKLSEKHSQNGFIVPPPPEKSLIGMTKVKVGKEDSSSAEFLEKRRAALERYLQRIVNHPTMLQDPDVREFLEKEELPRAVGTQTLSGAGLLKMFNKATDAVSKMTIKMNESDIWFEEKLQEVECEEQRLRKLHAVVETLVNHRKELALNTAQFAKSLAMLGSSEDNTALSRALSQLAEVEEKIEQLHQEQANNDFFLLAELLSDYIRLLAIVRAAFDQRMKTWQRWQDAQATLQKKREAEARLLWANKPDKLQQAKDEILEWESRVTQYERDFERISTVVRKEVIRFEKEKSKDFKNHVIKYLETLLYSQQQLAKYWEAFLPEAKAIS

T1: TMEM16K-V5-GFP11 (mouse) (UniProt Q8BH79)
T1 sequence: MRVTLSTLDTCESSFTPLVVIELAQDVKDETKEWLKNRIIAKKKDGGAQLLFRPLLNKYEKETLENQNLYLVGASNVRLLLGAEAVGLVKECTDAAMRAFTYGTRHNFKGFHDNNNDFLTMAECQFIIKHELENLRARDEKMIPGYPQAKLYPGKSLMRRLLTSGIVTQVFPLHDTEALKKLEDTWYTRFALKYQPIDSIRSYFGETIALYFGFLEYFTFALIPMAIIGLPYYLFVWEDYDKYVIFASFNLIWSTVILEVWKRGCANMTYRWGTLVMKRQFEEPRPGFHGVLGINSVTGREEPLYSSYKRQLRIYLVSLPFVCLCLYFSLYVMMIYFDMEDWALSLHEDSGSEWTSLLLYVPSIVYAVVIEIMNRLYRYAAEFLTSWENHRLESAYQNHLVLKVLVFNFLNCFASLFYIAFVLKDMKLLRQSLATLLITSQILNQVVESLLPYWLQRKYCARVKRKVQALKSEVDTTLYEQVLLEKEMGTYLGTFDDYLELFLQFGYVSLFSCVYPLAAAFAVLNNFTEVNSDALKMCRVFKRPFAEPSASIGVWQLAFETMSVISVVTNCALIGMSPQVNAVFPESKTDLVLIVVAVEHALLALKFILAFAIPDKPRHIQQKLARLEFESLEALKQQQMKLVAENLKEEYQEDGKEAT

B1: TMEM16K-V5-GFP11 (protein, UniProt Q8BH79 1-659)
chain: T1 sequence
B2: OSBPL8 tagged with the GFP(1-10) fragment (protein, UniProt Q9BZF1 1-889)
chain: MEGGLADGEPDRTSLLGDSKDVLGPSTVVANSDESQLLTPGKMSQRQGKEAYPTPTKDLHQPSLSPASPHSQGFERGKEDISQNKDESSLSMSKSKSESKLYNGSEKDSSTSSKLTKKESLKVQKKNYREEKKRATKELLSTITDPSVIVMADWLKIRGTLKSWTKLWCVLKPGVLLIYKTQKNGQWVGTVLLNACEIIERPSKKDGFCFKLFHPLEQSIWAVKGPKGEAVGSITQPLPSSYLIIRATSESDGRCWMDALELALKCSSLLKRTMIREGKEHDLSVSSDSTHVTFYGLLRANNLHSGDNFQLNDSEIERQHFKDQDMYSDKSDKENDQEHDESDNEVMGKSEESDTDTSERQDDSYIEPEPVEPLKETTYTEQSHEELGEAGEASQTETVSEENKSLIWTLLKQVRPGMDLSKVVLPTFILEPRSFLDKLSDYYYHADFLSEAALEENPYFRLKKVVKWYLSGFYKKPKGLKKPYNPILGETFRCLWIHPRTNSKTFYIAEQVSHHPPISAFYVSNRKDGFCLSGSILAKSKFYGNSLSAILEGEARLTFLNRGEDYVMTMPYAHCKGILYGTMTLELGGTVNITCQKTGYSAILEFKLKPFLGSSDCVNQISGKLKLGKEVLATLEGHWDSEVFITDKKTDNSEVFWNPTPDIKQWRLIRHTVKFEEQGDFESEKLWQRVTRAINAKDQTEATQEKYVLEEAQRQAARDRKTKNEEWSCKLFELDPLTGEWHYKFADTRPWDPLNDMIQFEKDGVIQTKVKHRTPMVSVPKMKHKPTRQQKKVAKGYSSPEPDIQDSSGSEAQSVKPSTRRKKGIELGDIQSSIESIKQTQEEIKRNIMALRNHLVSSTPATDYFLQQKDYFIIFLLILLQVIINFMFK
B3: OSBPL9 tagged with the GFP(1-10) fragment (protein, UniProt Q96SU4 1-736)
chain: MASIMEGPLSKWTNVMKGWQYRWFVLDYNAGLLSYYTSKDKMMRGSRRGCVRLRGAVIGIDDEDDSTFTITVDQKTFHFQARDADEREKWIHALEETILRHTLQLQGLDSGFVPSVQDFDKKLTEADAYLQILIEQLKLFDDKLQNCKEDEQRKKIETLKETTNSMVESIKHCIVLLQIAKDQSNAEKHADGMISTINPVDAIYQPSPLEPVISTMPSQTVLPPEPVQLCKSEQRPSSLPVGPVLATLGHHQTPTPNSTGSGHSPPSSSLTSPSHVNLSPNTVPEFSYSSSEDEFYDADEFHQSGSSPKRLIDSSGSASVLTHSSSGNSLKRPDTTESLNSSLSNGTSDADLFDSHDDRDDDAEAGSVEEHKSVIMHLLSQVRLGMDLTKVVLPTFILERRSLLEMYADFFAHPDLFVSISDQKDPKDRMVQVVKWYLSAFHAGRKGSVAKKPYNPILGEIFQCHWTLPNDTEENTELVSEGPVPWVSKNSVTFVAEQVSHHPPISAFYAECFNKKIQFNAHIWTKSKFLGMSIGVHNIGQGCVSCLDYDEHYILTFPNGYGRSILTVPWVELGGECNINCSKTGYSANIIFHTKPFYGGKKHRITAEIFSPNDKKSFCSIEGEWNGVMYAKYATGENTVFVDTKKLPIIKKKVRKLEDQNEYESRSLWKDVTFNLKIRDIDAATEAKHRLEERQRAEARERKEKEIQWETRLFHEDGECWVYDEPLLKRLGAAKH
B4: OSBPL11 tagged with the GFP(1-10) fragment (protein, UniProt Q9BXB4 1-747)
chain: MQGGEPVSTMKVSESEGKLEGQATAVTPNKNSSCGGGISSSSSSRGGSAKGWQYSDHMENVYGYLMKYTNLVTGWQYRFFVLNNEAGLLEYFVNEQSRNQKPRGTLQLAGAVISPSDEDSHTFTVNAASGEQYKLRATDAKERQHWVSRLQICTQHHTEAIGKNNPPLKSRSFSLASSSNSPISQRRPSQNAISFFNVGHSKLQSLSKRTNLPPDHLVEVREMMSHAEGQQRDLIRRIECLPTSGHLSSLDQDLLMLKATSMATMNCLNDCFHILQLQHASHQKGSLPSGTTIEWLEPKISLSNHYKNGADQPFATDQSKPVAVPEEQPVAESGLLAREPEEINADDEIEDTCDHKEDDLGAVEEQRSVILHLLSQLKLGMDLTRVVLPTFILEKRSLLEMYADFMSHPDLFIAITNGATAEDRMIRFVEYYLTSFHEGRKGAIAKKPYNPIIGETFHCSWKMPKSEVASSVFSSSSTQGVTNHAPLSGESLTQVGSDCYTVRFVAEQVSHHPPVSGFYAECTERKMCVNAHVWTKSKFLGMSIGVTMVGEGILSLLEHGEEYTFSLPCAYARSILTVPWVELGGKVSVNCAKTGYSASITFHTKPFYGGKLHRVTAEVKHNITNTVVCRVQGEWNSVLEFTYSNGETKYVDLTKLAVTKKRVRPLEKQDPFESRRLWKNVTDSLRESEIDKATEHKHTLEERQRTEERHRTETGTPWKTKYFIKEGDGWVYHKPLWKIIPTTQPAE

Biological target: T1, TMEM16K-V5-GFP11 (mouse)
Assay: split reporter; split-GFP: COS-7 cells double transfected with a GFP11-tagged and a GFP(1-10)-tagged construct, GFP channel read by confocal microscopy

Molecule	binding
SNX1 tagged with the GFP(1-10) fragment (from UniProt Q13596 1-522)	no binding
VPS26 tagged with the GFP(1-10) fragment (from UniProt O75436 1-327)	no binding
B1	binds
B2	no binding
B3	no binding
B4	no binding
